For experiment [1], the target named is TRIM21 (endogenous) (human (endogenous in BXPC3 and SW1990)) (UniProt P19474). In words: co-IP; endogenous proteins in BXPC3 and SW1990 cells (Figure S4D,E).
The target of experiment [2] is FLAG-TRIM21 (UniProt P19474). In words: co-IP; BXPC3 and SW1990 cells overexpressing FLAG-TRIM21, WT cells as negative control; immunoprecipitation with FLAG-magnetic beads, overnight at 4 °C; blot for EPHX1.
The target of experiment [3] is FLAG-TRIM21 (UniProt P19474). In words: co-IP; BXPC3 and SW1990 cells transfected with FLAG-TRIM21 and HIS-EPHX1, treated 48 h with different concentrations of Bezafibrate.
The target of experiment [4] is FLAG-TRIM21 (UniProt P19474). In words: co-IP; HEK293T cells co-transfected with HIS-EPHX1 and full-length or truncated FLAG-TRIM21; bait not stated.
The target in experiment [5] is FLAG-TRIM21 (UniProt P19474). In words: co-IP; HIS-EPHX1^K105R compared with EPHX1 for the interaction with TRIM21 (Figure S5E); cells and bait not stated.

Chains of the proteins cited; added tags and fusions are not shown.
UniProt P19474: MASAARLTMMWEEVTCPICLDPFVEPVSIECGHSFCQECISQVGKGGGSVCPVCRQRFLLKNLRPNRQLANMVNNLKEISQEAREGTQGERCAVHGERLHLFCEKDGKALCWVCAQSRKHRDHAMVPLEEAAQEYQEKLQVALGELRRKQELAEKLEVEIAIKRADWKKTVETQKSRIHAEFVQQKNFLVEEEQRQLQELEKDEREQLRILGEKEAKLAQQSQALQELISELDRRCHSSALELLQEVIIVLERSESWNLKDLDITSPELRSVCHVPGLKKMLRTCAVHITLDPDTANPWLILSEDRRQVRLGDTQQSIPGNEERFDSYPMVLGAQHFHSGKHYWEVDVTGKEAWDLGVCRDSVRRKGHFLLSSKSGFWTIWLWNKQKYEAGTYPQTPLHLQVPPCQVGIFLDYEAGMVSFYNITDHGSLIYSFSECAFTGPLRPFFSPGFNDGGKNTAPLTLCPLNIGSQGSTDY

Where a chain is given by its changes, count along the chain named. Numbers in names are those of the source. Results are given in words; binding and its absence hold for the method and conditions named. In cells and extracts the contact can be indirect. Some binding calls cover weakened binding; strength is not graded here. For part of these data: Tags and fused reporters may be left off the sequences shown.

B1: EPHX1 (endogenous) (enzyme, UniProt P07099 1-455)
chain: MWLEILLTSVLGFAIYWFISRDKEETLPLEDGWWGPGTRSAAREDDSIRPFKVETSDEEIHDLHQRIDKFRFTPPLEDSCFHYGFNSNYLKKVISYWRNEFDWKKQVEILNRYPHFKTKIEGLDIHFIHVKPPQLPAGHTPKPLLMVHGWPGSFYEFYKIIPLLTDPKNHGLSDEHVFEVICPSIPGYGFSEASSKKGFNSVATARIFYKLMLRLGFQEFYIQGGDWGSLICTNMAQLVPSHVKGLHLNMALVLSNFSTLTLLLGQRFGRFLGLTERDVELLYPVKEKVFYSLMRESGYMHIQCTKPDTVGSALNDSPVGLAAYILEKFSTWTNTEFRYLEDGGLERKFSLDDLLTNVMLYWTTGTIISSQRFYKENLGQGWMTQKHERMKVYVPTGFSAFPFELLHTPEKWVRFKYPKLISYSYMVRGGHFAAFEEPELLAQDIRKFLSVLERQ
Take B1: the binding entry in experiment [1] and in experiment [2] was “binds” throughout.

B2: HIS-EPHX1 (enzyme, UniProt P07099 1-455)
chain: B1 chain
Regarding B2, the binding entry in experiment [3], in experiment [4] and in experiment [5] was “binds” in each case.

B3: HIS-EPHX1^K105R (enzyme, UniProt P07099 1-455)
chain: B1 chain with K105R
As for B3, in experiment [5], the binding entry is listed as “binds”.
